# Some of the results follow. These are further read-outs of the screen, such as a control signal, another cell line or another target. No call is given for them. Compounds called inactive in the main read-out are mostly missing here. Potencies come from curve fits of mixed quality, noted in brackets.
# Assay: qHTS Assay to Find Inhibitors of Chronic Active B-Cell Receptor Signaling
# Conditions: ABC-DLBCL IkBa-CBG/CBR reporter, luminescence ratio (green luciferase fused to IkBa over red control in TMD8 lymphoma cells), 4 h
# Procedure, shortened: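 Compounds up to 46 uM were incubated four hours with TMD8 cells whose green CBG68 luciferase is fused to IkappaBalpha; red CBR luminescence normalised the signal, and concentration-effect curves were fitted to fusion, red and ratio data.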
# [1] = measured here: CBR red luminescence, cell number
# [2] = measured here: IkBa-CBG green luminescence
Compound,AC50 [1],AC50 [2]
O=C(Nc1cccc(-c2cn3ccccc3n2)c1)c1cc2ccccc2oc1=O,"11.6 µM [falling, partial curve, poor fit]",
COc1ccccc1CC(=O)Nc1cccc(C(=O)NN2C(=O)c3ccccc3C2=O)c1,"14.6 µM [falling, partial curve]",
Cc1cc2c(ncn2C)c(NS(=O)(=O)c2ccc(Cl)cc2)c1C,"10 µM [rising, partial curve, poor fit]",
O=C(c1cc2ncccn2n1)N1CCc2c([nH]c3ccccc23)C1c1ccccc1F (stereo not given),"35.5 µM [rising, single point]",
COc1ccc(C(=O)NCC(=O)OCC(=O)Nc2ccc(C)c(S(=O)(=O)N(C)C)c2)cc1OC,,"10 µM [falling, partial curve, poor fit]"
COc1cc(OC)c2c(-c3cccc(-c4ccc(OC)c(F)c4)c3)cc(=O)oc2c1,"2.59 µM [rising, partial curve]","2.06 µM [falling, partial curve]"
NS(=O)(=O)c1ccc(N/N=C/c2ccc[nH]2)c([N+](=O)[O-])c1,"12.6 µM [rising, partial curve, poor fit]",
CCN(CC)S(=O)(=O)c1cc(C)ccc1NC(=S)Nc1cccnc1,"35.5 µM [falling, single point]",
COc1ccc(-n2c(C)cc(C(=O)Cn3nc(C(=O)O)c4ccccc4c3=O)c2C)cc1,"29.1 µM [falling, single point]",
CCCc1nc(N2CCOCC2)c2sc(=S)n(-c3ccccc3)c2n1,"0.00461 µM [falling, full curve, poor fit]",
CCn1c(SCC(=O)Nc2cccc(C)c2)nc2nc3c(cc2c1=O)COC(C)(C)C3,"14.1 µM [falling, single point]",
Cc1cc(C)cc(C(=O)Nc2cc3c4c(c2)CC(=O)N4CCC3)c1,"0.00731 µM [rising, full curve, poor fit]",
c1ccc(-c2noc(C34CC5CC(CC(C5)C3)C4)n2)cc1,"0.0517 µM [rising, full curve, poor fit]",
COc1ccc(OC)c(COC(=O)c2cc([N+](=O)[O-])ccc2N2CCOCC2)c1,"3.66 µM [rising, full curve, poor fit]",
COc1cccc2cc(-c3nnc(Nc4c(F)cccc4F)s3)c(=O)oc12,"1.41 µM [falling, full curve, poor fit]",
O=C(Cn1cc([N+](=O)[O-])cn1)Nc1ccn(Cc2c(F)c(F)c(F)c(F)c2F)n1,"0.184 µM [falling, full curve, poor fit]",
COc1ccc(C(=O)Nn2c(SCC(=O)c3ccccc3)nc3ccccc3c2=O)cc1,"7.94 µM [falling, partial curve]",
O=C(c1ccco1)n1nc(-c2ccccc2)nc1SCc1ccccc1,"0.146 µM [rising, full curve, poor fit]",
Cc1nc2ncnn2c(N2CCC(C(=O)NC3CCCC3)CC2)c1Cc1ccccc1,"2.59 µM [falling, partial curve, poor fit]",
CC1CCN(c2nc(-c3ccco3)c3c(c2C#N)CC(C)(C)OC3)CC1,,"5.8 µM [rising, full curve, poor fit]"
Cc1ccc(Cl)cc1-n1ncc2c(N3CCCCCC3)ncnc21,"35.5 µM [falling, single point]",

Compound,AC50 [1],AC50 [2]
O=C(Nc1ccc(Cl)cc1C(F)(F)F)c1ccc(Cl)cc1,"2.51 µM [rising, partial curve, poor fit]",
Cc1ccc(-c2nc(CS(=O)CC(=O)N3CCN(c4ncccn4)CC3)c(C)o2)cc1 (stereo not given),"6.31 µM [rising, full curve, poor fit]",
Cc1ccccc1C(=O)Oc1cc(N)n(S(=O)(=O)c2ccccc2)n1,"25.1 µM [falling, single point]",
CCN(CC)C(=O)CSc1nc2ccc(NC(=O)CSc3nnc(COc4ccccc4C)n3C)cc2s1,"35.5 µM [falling, single point]",
CCc1ccc(S(=O)(=O)/N=C2\C=C(Nc3cccc(C(=O)O)c3)C(=O)c3ccccc32)cc1,"5.62 µM [falling, partial curve]",
COc1cc2c(cc1OC)C(CC#N)=NC(C)(C)C2,,"2.06 µM [falling, full curve]"
COc1ccc(C(=O)NC(CC(=O)O)c2cc([N+](=O)[O-])ccc2Cl)c(SC)c1 (stereo not given),"35.5 µM [falling, single point]","17.8 µM [rising, partial curve, poor fit]"
Cc1ccccc1OCC(=O)NCC1CCCO1 (stereo not given),"6.51 µM [rising, partial curve, poor fit]",
CC1C/C(=C/c2cccn2C)C(=O)/C(=C/c2cccn2C)C1 (stereo not given),"20.6 µM [falling, partial curve, poor fit]",
CN(C)/C=C/C(=O)c1ccc(-c2ccc(Cl)cc2Cl)o1,"22.4 µM [falling, partial curve, poor fit]",
CC(=O)OCC(=O)Nc1ccc([N+](=O)[O-])cc1Cl,"17.8 µM [rising, single point]",
O=C(Nc1cccc(-c2nnc(-c3ccccc3)o2)c1)c1ccco1,"6.31 µM [rising, full curve, poor fit]",
CCN(CC)C(=O)c1sc2c(c1C)c(=O)n(-c1ccc(OC)cc1OC)c(=O)n2CC(=O)c1ccc(Cl)cc1,"35.5 µM [rising, single point]",
O=C(CSc1nc2ncccc2[nH]1)Nc1ccc2c(c1)OCCO2,"23.1 µM [falling, single point]",
COc1ccc(CNC(=O)C2CCN(S(=O)(=O)N3CCC4(CC3)OCCO4)CC2)c(OC)c1,"23.1 µM [rising, single point]",
Cc1ccc(Nc2nc(N)c([N+](=O)[O-])c(NCc3ccccc3)n2)cc1,"11.2 µM [rising, partial curve, poor fit]",
COc1cccc(/C(C)=N/Nc2ncc(Cl)cc2Cl)c1,,"23.1 µM [falling, single point]"
COc1ccc(C(=O)Nc2ccccc2C(=O)N/N=C/c2ccncc2)cc1OC,"1.58 µM [falling, full curve]","14.1 µM [rising, single point]"
COc1ccc2nc3cccc(OC)c3nc2c1,"5.62 µM [falling, full curve, poor fit]",
COc1cc(NS(=O)(=O)c2ccc(OC)c(C)c2C)c(OC)cc1Cl,"1.46 µM [falling, partial curve, poor fit]",
O=C(C(=O)N1CCN(Cc2ccc3c(c2)OCO3)CC1)c1c[nH]c2ccccc12,"8.91 µM [falling, partial curve, poor fit]",

Compound,AC50 [1],AC50 [2]
COc1ccc(NC(=O)CN2CCc3ccccc3C2)cc1OC,"11.2 µM [rising, partial curve]",
O=C(NCCOc1ccc(Cl)cc1)c1ccc2c(c1)OCCO2,"1.64 µM [falling, partial curve, poor fit]",
Cn1ncc2c(N3CCC(Cc4ccccc4)CC3)ncnc21,"35.5 µM [falling, single point]",
COc1cccc(C2CC(c3ccccc3Cl)n3ncnc3N2)c1 (stereo not given),"0.184 µM [falling, full curve, poor fit]",
O=c1ccc(/C=C/c2ccccc2)nn1Cc1ccccc1Cl,"3.26 µM [rising, partial curve, poor fit]",
COCCNC(=O)C(c1ccc(C)cc1)N(CCOC)C(=O)CCC(=O)Nc1ccccn1 (stereo not given),"0.501 µM [rising, full curve, poor fit]",
COc1ccc(CNC(=O)CCN2C(=O)c3ccccc3C2=O)cc1,"0.562 µM [falling, full curve, poor fit]",
Cn1c(=N)n(CC(O)c2cccc3ccccc23)c2ccccc21 (stereo not given),"12.6 µM [falling, single point]",
N#Cc1nc(-c2ccccc2F)oc1N1CCCCC1,"4.47 µM [rising, full curve, poor fit]",
S=c1[nH]cc(-c2ccc(Cl)cc2)n1Cc1ccccc1,"1.26 µM [falling, full curve]",
COc1ccc(C(=O)Nc2ccc(Cl)cc2C(=O)NCCN2CCOCC2)cc1,"35.5 µM [falling, single point]",
COc1ccccc1C(C[N+](=O)[O-])c1c[nH]c2ccccc12 (stereo not given),"12.6 µM [falling, single point]",
COc1ccccc1CO/N=C/NC(=O)c1c(OC)ccnc1Oc1ccc(F)cc1,"23.1 µM [falling, single point]",
N#C/C(=N\Nc1cccc2ccccc12)c1nnc2n1CCCCC2,"16.4 µM [rising, single point]",
COc1ccc(Br)cc1CN(C)C(=O)c1ccc2c(c1)NC(=O)C(C)S2 (stereo not given),"35.5 µM [falling, single point]",
Cc1ccc(C(=O)Nc2ccccc2C(=O)N2CCOCC2)cc1[N+](=O)[O-],"25.9 µM [falling, single point]",
CCOCC(=O)Nc1cc(Cl)c(OC)cc1OC,"12.6 µM [rising, partial curve]",
COc1ccc(CN(C)C(=O)c2ccc3ccccc3n2)cc1F,,"28.2 µM [falling, single point]"
O=C(COc1ccccc1)Nc1nnc(-c2ccc(F)cc2)o1,"35.5 µM [falling, partial curve, poor fit]",
COc1ccc(NC(=O)CCC(=O)Nc2nnc(C3CCCCC3)s2)cc1,"0.562 µM [rising, full curve, poor fit]",

# 3 records drawn at random from the list so far, as already listed:
Compound,AC50 [1],AC50 [2]
COc1ccc(Br)cc1CN(C)C(=O)c1ccc2c(c1)NC(=O)C(C)S2 (stereo not given),"35.5 µM [falling, single point]",
O=C(NCCOc1ccc(Cl)cc1)c1ccc2c(c1)OCCO2,"1.64 µM [falling, partial curve, poor fit]",
O=c1ccc(/C=C/c2ccccc2)nn1Cc1ccccc1Cl,"3.26 µM [rising, partial curve, poor fit]",
